Results are given in words; binding and its absence hold for the method and conditions named. In cells and extracts the contact can be indirect. Some binding calls cover weakened binding; strength is not graded here.
Target: recombinant SBP-AR (rSBP-AR) (human) (UniProt P10275)
Assay: pull-down; in vitro translated rSBP-AR incubated with 200 µg cytosolic extract of AD or AS LNCaP cells and 25 µl streptavidin beads, with vehicle (ethanol) or 100 nM R1881; eluates blotted for COPE and COPD, compared with samples without rSBP-AR

The chains behind the UniProt entries cited, without tags or fusion partners.
UniProt P10275: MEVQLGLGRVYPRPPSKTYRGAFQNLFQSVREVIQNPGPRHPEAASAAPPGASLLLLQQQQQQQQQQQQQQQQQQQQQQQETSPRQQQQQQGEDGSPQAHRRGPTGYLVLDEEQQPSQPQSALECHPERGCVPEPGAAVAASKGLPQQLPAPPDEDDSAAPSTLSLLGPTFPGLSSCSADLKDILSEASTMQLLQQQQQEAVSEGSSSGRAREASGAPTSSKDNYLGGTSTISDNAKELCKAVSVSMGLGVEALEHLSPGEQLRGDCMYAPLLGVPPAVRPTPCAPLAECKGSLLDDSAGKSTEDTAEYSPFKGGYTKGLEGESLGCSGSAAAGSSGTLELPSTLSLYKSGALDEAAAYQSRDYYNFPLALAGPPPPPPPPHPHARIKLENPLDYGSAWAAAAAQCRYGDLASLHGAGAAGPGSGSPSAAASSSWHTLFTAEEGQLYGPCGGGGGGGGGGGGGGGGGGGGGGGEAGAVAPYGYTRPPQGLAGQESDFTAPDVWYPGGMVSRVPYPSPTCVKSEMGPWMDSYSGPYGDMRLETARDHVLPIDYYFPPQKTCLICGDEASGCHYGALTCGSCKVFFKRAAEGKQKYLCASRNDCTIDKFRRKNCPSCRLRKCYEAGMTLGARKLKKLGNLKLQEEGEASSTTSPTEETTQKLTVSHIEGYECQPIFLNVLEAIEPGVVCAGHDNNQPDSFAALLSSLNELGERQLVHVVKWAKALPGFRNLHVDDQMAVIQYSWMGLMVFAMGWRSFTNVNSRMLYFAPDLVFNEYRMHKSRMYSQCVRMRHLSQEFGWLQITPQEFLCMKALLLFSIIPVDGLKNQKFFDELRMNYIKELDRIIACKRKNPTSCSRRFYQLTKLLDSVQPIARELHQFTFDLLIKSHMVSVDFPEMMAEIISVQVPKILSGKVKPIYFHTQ

- binding: binds
B1: COPD subunit of the COPI complex (protein, UniProt P48444 1-511)
chain: MVLLAAAVCTKAGKAIVSRQFVEMTRTRIEGLLAAFPKLMNTGKQHTFVETESVRYVYQPMEKLYMVLITTKNSNILEDLETLRLFSRVIPEYCRALEENEISEHCFDLIFAFDEIVALGYRENVNLAQIRTFTEMDSHEEKVFRAVRETQEREAKAEMRRKAKELQQARRDAERQGKKAPGFGGFGSSAVSGGSTAAMITETIIETDKPKVAPAPARPSGPSKALKLGAKGKEVDNFVDKLKSEGETIMSSSMGKRTSEATKMHAPPINMESVHMKIEEKITLTCGRDGGLQNMELHGMIMLRISDDKYGRIRLHVENEDKKGVQLQTHPNVDKKLFTAESLIGLKNPEKSFPVNSDVGVLKWRLQTTEESFIPLTINCWPSESGNGCDVNIEYELQEDNLELNDVVITIPLPSGVGAPVIGEIDGEYRHDSRRNTLEWCLPVIDAKNKSGSLEFSIAGQPNDFFPVQVSFVSKKNYCNIQVTKVTQVDGNSPVRFSTETTFLVDKYEIL

Reference: publication PMC5009256
